PubChem BioAssay AID743121, NCATS – 2013

Assay: 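Knock-downs that sensitise breast cancer cells to camptothecin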 (primary screen)
Cell system: MDA-MB-231 cells, a human breast cancer line
Reagent: single siRNA against human genes, 20 nM siRNA (0.8 pmol per well)
Timing: 120 h (drug added 48 h after transfection, read 72 h later)
Conditions: camptothecin 20 nM (about EC30) for 72 h; vehicle 0.1% DMSO in parallel plates
Measured: 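Cell viability by ATP luminescence (CellTiter-Glo) as % of non-targeting siRNA wells, and the log2 ratio of viability without drug over viability with camptothecin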
Direction: log2 vehicle/camptothecin viability: higher = stronger sensitisation to camptothecin; viability with camptothecin: higher = more viable cells
Units: viability with camptothecin in % of control
Active means: 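Active genes have an RSA gene-level p-value below 0.001, computed from the ratios of their separate siRNAs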
Here is an unselected part of about 26,000 reagents. 167 of them (0.63%) count as active. 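Calls are per gene from RSA p-values that are not deposited; an individual active-marked siRNA can sensitise only weakly.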 Reagents against one gene are numbered here. Further read-outs or replicates are left out here.

SSTR5 (somatostatin receptor 5) #1 → log2 vehicle/camptothecin viability = -0.121; viability with camptothecin = 50.5; activity call = inactive
SSTR5 (somatostatin receptor 5) #2 → log2 vehicle/camptothecin viability = 0.237; viability with camptothecin = 70.6; activity call = inactive
SSTR5 (somatostatin receptor 5) #3 → log2 vehicle/camptothecin viability = -0.194; viability with camptothecin = 52; activity call = inactive
SSTR5 (somatostatin receptor 5) #4 → log2 vehicle/camptothecin viability = -0.668; viability with camptothecin = 83.5; activity call = inactive
ATP4B (ATPase H+/K+ transporting subunit beta) #1 → log2 vehicle/camptothecin viability = -0.398; viability with camptothecin = 69.8; activity call = inactive
ATP4B (ATPase H+/K+ transporting subunit beta) #2 → log2 vehicle/camptothecin viability = -0.504; viability with camptothecin = 64; activity call = inactive
ATP4B (ATPase H+/K+ transporting subunit beta) #3 → log2 vehicle/camptothecin viability = -0.205; viability with camptothecin = 112; activity call = inactive
ATP4B (ATPase H+/K+ transporting subunit beta) #4 → log2 vehicle/camptothecin viability = -0.206; viability with camptothecin = 85.7; activity call = inactive
HTRA4 (HtrA serine peptidase 4) #1 → log2 vehicle/camptothecin viability = -0.336; viability with camptothecin = 87.8; activity call = inactive
HTRA4 (HtrA serine peptidase 4) #2 → log2 vehicle/camptothecin viability = 0.316; viability with camptothecin = 39; activity call = inactive
HTRA4 (HtrA serine peptidase 4) #3 → log2 vehicle/camptothecin viability = 0.35; viability with camptothecin = 74.7; activity call = inactive
HTRA4 (HtrA serine peptidase 4) #4 → log2 vehicle/camptothecin viability = -0.0275; viability with camptothecin = 92; activity call = inactive
PPP1R1C (protein phosphatase 1 regulatory inhibitor subunit 1C) #1 → log2 vehicle/camptothecin viability = -0.337; viability with camptothecin = 68.9; activity call = inactive
PPP1R1C (protein phosphatase 1 regulatory inhibitor subunit 1C) #2 → log2 vehicle/camptothecin viability = -0.109; viability with camptothecin = 30.4; activity call = inactive
PPP1R1C (protein phosphatase 1 regulatory inhibitor subunit 1C) #3 → log2 vehicle/camptothecin viability = 0.325; viability with camptothecin = 56.2; activity call = inactive
PPP1R1C (protein phosphatase 1 regulatory inhibitor subunit 1C) #4 → log2 vehicle/camptothecin viability = 0.0811; viability with camptothecin = 70.4; activity call = inactive

Records listed so far whose gene name starts with H or h:
HTRA4 (HtrA serine peptidase 4) #1 → log2 vehicle/camptothecin viability = -0.336; viability with camptothecin = 87.8; activity call = inactive
HTRA4 (HtrA serine peptidase 4) #2 → log2 vehicle/camptothecin viability = 0.316; viability with camptothecin = 39; activity call = inactive
HTRA4 (HtrA serine peptidase 4) #3 → log2 vehicle/camptothecin viability = 0.35; viability with camptothecin = 74.7; activity call = inactive
HTRA4 (HtrA serine peptidase 4) #4 → log2 vehicle/camptothecin viability = -0.0275; viability with camptothecin = 92; activity call = inactive
